Nine targets from the supplement of paper PMC7666118 can be followed below.

Amino acid sequences for entries named in this document (tags omitted). A change or cut given only in a name is not applied to a line headed by its entry.
UniProt Q969X5: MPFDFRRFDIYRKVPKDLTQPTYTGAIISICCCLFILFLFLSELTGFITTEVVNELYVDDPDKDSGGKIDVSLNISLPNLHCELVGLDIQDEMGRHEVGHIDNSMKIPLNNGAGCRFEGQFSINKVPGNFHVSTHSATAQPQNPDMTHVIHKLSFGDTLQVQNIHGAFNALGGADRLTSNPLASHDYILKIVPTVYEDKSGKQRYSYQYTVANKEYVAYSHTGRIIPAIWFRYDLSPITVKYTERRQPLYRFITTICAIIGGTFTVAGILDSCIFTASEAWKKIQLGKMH
UniProt O75354: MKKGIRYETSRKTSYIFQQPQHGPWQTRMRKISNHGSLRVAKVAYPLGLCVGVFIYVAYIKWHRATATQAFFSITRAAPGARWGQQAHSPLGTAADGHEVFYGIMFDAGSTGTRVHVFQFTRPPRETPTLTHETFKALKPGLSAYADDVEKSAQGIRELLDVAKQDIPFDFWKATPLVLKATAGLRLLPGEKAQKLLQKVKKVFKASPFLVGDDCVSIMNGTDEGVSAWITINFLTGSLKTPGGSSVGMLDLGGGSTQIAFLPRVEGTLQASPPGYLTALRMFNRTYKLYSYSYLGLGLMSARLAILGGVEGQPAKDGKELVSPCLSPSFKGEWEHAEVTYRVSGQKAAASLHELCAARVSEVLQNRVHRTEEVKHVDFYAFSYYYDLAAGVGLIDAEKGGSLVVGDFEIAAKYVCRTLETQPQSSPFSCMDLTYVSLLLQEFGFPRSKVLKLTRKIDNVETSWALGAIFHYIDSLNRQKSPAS
UniProt Q7Z2Z2: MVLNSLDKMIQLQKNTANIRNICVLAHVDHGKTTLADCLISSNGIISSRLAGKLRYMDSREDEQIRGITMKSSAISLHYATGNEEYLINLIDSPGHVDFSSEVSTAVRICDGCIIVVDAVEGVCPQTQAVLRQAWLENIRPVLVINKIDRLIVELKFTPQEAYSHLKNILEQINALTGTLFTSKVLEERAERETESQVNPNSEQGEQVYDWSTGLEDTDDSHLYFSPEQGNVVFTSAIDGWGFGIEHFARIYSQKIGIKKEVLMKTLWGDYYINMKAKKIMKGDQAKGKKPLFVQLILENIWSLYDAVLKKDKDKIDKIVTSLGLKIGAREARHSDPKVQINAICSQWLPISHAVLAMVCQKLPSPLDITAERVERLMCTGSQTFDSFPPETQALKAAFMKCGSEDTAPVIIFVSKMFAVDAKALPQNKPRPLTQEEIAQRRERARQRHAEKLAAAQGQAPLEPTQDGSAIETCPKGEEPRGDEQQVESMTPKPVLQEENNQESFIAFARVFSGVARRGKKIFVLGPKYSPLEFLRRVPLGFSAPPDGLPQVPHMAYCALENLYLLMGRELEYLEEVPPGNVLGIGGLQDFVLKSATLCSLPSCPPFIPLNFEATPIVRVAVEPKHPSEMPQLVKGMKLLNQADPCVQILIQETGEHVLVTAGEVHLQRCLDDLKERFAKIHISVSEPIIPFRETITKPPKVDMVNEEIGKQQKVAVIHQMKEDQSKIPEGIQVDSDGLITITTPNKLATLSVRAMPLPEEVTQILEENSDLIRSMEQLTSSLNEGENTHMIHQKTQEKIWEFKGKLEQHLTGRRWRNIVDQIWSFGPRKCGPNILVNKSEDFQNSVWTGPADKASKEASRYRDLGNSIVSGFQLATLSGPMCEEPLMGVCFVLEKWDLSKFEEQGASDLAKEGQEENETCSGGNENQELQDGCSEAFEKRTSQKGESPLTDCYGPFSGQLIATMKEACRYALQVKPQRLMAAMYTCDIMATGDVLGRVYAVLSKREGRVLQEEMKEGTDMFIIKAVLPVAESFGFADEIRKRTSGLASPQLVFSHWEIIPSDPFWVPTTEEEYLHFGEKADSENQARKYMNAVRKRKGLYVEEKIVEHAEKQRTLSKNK
UniProt O00471: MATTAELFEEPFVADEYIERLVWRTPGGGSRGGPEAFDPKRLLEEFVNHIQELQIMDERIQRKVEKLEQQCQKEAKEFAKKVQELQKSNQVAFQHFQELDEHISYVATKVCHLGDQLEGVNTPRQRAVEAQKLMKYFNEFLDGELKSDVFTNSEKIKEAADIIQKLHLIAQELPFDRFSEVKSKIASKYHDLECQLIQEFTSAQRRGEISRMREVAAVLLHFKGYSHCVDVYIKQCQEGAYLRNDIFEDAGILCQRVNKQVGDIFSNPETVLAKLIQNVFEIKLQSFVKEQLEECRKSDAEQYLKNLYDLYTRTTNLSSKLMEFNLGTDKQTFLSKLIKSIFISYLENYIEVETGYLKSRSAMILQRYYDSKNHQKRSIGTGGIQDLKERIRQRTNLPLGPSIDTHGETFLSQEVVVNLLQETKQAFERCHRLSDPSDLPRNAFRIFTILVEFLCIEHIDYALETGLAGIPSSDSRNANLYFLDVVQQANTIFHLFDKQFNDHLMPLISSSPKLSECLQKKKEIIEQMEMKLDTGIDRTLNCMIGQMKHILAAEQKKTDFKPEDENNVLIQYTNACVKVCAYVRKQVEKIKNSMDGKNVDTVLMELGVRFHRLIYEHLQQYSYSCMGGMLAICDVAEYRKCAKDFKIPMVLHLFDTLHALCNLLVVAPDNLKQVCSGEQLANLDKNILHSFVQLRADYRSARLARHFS
UniProt O43768: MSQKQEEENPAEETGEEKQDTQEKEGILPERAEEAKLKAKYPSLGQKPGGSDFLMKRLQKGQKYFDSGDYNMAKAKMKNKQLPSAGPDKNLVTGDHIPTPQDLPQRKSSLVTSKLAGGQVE
UniProt Q9H410: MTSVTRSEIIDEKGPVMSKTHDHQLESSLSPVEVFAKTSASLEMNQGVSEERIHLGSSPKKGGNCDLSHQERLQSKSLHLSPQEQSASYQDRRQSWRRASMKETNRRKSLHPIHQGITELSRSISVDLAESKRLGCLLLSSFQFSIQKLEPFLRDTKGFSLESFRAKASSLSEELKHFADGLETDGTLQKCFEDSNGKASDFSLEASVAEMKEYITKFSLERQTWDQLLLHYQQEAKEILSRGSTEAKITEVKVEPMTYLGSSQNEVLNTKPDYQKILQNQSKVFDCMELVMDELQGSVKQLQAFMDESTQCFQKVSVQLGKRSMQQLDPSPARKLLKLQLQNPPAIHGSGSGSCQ
UniProt Q7Z2K6: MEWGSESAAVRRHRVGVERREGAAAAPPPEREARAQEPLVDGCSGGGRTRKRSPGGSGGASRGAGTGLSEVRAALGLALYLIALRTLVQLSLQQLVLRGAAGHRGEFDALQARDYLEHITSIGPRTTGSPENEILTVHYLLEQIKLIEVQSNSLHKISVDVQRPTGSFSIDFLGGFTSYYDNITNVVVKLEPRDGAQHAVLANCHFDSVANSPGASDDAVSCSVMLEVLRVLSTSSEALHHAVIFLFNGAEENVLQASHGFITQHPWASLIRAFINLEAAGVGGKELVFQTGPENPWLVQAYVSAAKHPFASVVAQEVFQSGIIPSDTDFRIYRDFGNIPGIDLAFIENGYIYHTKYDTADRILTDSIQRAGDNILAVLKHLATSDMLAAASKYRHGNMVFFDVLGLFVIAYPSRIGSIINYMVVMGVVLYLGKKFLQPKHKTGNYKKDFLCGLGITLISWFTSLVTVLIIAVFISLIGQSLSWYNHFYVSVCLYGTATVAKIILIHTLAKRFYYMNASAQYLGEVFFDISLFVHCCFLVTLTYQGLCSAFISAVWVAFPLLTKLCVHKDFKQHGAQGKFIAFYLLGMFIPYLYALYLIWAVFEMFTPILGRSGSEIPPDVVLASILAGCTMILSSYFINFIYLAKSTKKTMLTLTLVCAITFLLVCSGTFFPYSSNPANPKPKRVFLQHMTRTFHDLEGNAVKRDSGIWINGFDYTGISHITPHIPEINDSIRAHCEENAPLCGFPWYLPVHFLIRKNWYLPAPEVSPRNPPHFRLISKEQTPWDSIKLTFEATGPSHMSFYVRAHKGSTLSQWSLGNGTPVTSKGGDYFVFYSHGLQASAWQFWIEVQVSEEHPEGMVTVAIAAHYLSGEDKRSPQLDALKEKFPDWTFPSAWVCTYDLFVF

The other results are listed elsewhere or left out.

Compound in the experiment: COc1ccc(Cn2ccc3cc(C)c(C(=O)NO)cc32)cc1
The experiment can be described thus: dose-dependent thermal stabilisation call (2D-TPP, DLPTP, 10% FDR) (binary (1 = stabilised)); higher = stabilised by the compound. The note with it: system: HL-60 intact cells; concentration range 0.04-10 µM. Here is the method:
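2D thermal proteome profiling in intact HL-60 cells treated with BRD-3811 (0, 0.04, 0.29, 2, 10 uM) for 90 min at 37 C, then heated 3 min at one of 12 temperatures (42-63.9 C). Soluble protein was quantified by TMT10 MS. The value is the DLPTP call of the paper: dose-dependent thermal stabilisation over all temperatures at 10% FDR (F-test of a dose-response against a flat model); one experiment, one call per tested protein.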
As for ERGIC1 (UniProt Q969X5), the “dose-dependent thermal stabilisation call” value was inactive: 0.

As for ENTPD6 (UniProt O75354), the “dose-dependent thermal stabilisation call” value is inactive: 0.

With EFTUD1 (UniProt Q7Z2Z2), the “dose-dependent thermal stabilisation call” value is inactive: 0. Consider EXOC5 (UniProt O00471), for which the “dose-dependent thermal stabilisation call” value was inactive: 0. As for ENSA (UniProt O43768), the “dose-dependent thermal stabilisation call” value was inactive: 0.

For the target ERP29 (UniProt P30040), the “dose-dependent thermal stabilisation call” value was inactive: 0. The figure for DYNC2H1 (UniProt Q8NCM8) is inactive: 0; for DSN1 (UniProt Q9H410) it is inactive: 0; for ERMP1 (UniProt Q7Z2K6) it is inactive: 0.
